According to patent US11866460B2 (priority 2015, dated 2024):
In brackets after ≈: the same amount, converted by molar mass.

Key:
[1] = system: Escherichia coli; assay: microbe, parasite or virus in culture; assay type: cell-based
[2] = system: Mycobacterium smegmatis; assay: microbe, parasite or virus in culture; assay type: cell-based; conditions: Mycolicibacterium smegmatis, 48 h
[3] = system: Staphylococcus aureus (MSSA); assay: microbe, parasite or virus in culture
[4] = system: Klebsiella pneumoniae; assay: microbe, parasite or virus in culture; assay type: cell-based
[5] = system: Streptococcus agalactiae; assay: microbe, parasite or virus in culture
[6] = system: Streptococcus pyogenes; assay: microbe, parasite or virus in culture
[7] = system: Staphylococcus aureus (MRSA); assay: microbe, parasite or virus in culture; assay type: cell-based
[8] = system: Streptococcus pneumoniae (PRSP); assay: microbe, parasite or virus in culture
[9] = system: Enterococcus faecium (VRE); assay: organism not typed
[10] = system: Moraxella catarrhalis; assay: microbe, parasite or virus in culture; assay type: cell-based
[11] = system: Enterococcus faecalis (VSE); assay: microbe, parasite or virus in culture
[12] = system: Streptococcus pneumoniae (PSSP); assay: microbe, parasite or virus in culture
[13] = system: Streptococcus salivarius; assay: microbe, parasite or virus in culture
[14] = system: Bacillus anthracis Sterne; assay: microbe, parasite or virus in culture
[15] = system: Pseudomonas aeruginosa; assay: microbe, parasite or virus in culture; assay type: cell-based
[16] = system: Escherichia coli ΔacrAB; assay: microbe, parasite or virus in culture; assay type: cell-based
[17] = system: Enterococcus faecalis (VRE); assay: organism not typed

`CCC[C@@H]1C[C@@H](C(=O)N[C@@H]([C@H]2O[C@H](SC)[C@H](O)[C@@H](O)[C@H]2O)[C@H](C)Cl)N(C)C1` [Clindamycin] showed an MIC [1] greater than 64 µg/mL, an MIC [2] of 16 µg/mL (≈ 37.6 µM) and an MIC [3] of 0.12 µg/mL (≈ 0.282 µM). For the same compound, the MIC [4] was greater than 64 µg/mL, the MIC [5] was no more than 0.06 µg/mL and the MIC [6] was no more than 0.06 µg/mL. The MIC [7] was no more than 0.06 µg/mL, the MIC [8] was greater than 64 µg/mL and the MIC [9] was greater than 64 µg/mL. The MIC [10] was 1 µg/mL (≈ 2.35 µM), the MIC [11] was 16 µg/mL (≈ 37.6 µM) and the MIC [12] was no more than 0.06 µg/mL. It also gave an MIC [13] of no more than 0.06 µg/mL, an MIC [14] of 0.25 µg/mL (≈ 0.588 µM) and an MIC [15] greater than 64 µg/mL. It also gave an MIC [16] of 4 µg/mL (≈ 9.41 µM) and an MIC [17] greater than 64 µg/mL.
